Results as given in patent US20180116933A1, “ANTI-OXIDATIVE OR ANTI-AGING COMPOSITION CONTAINING 5-ADAMANTAN-1-YL-N-(2,4-DIHYDROXYBENZYL)-2,4-DIMETHOXYBENZAMIDE” (Amorepacific Corporation, priority 2015, published 2018).
At least one structure is not confirmed: it was looked up by name or label, or the drawing left a doubt.

Test system: matrix metalloprotease-1 (MMP-1)
Assay: MMP-1 assay: UV-induced MMP-1 expression in HS68 human fibroblasts (MMP-1 ELISA kit)
Type: cell-based
Settings: UV-irradiated HS68 cells treated with the reference, 48 hours (FIG. 3)
Procedure: In order to confirm the anti-aging effect of the sample, an experiment to see how much 5-adamantan-1-yl-N-(2,4-dihydroxybenzyl)-2,4-dimethoxybenzamide can inhibit the expression of matrix metalloprotease-1 (MMP-1) to be induced by ultraviolet (UV) rays was performed.
Human fibroblasts (HS68 cells, purchased from ATCC (Rockville, Md., USA)) were plated on a well plate at a density of 7.5×10^4 cells/well, then incubated in DMEM (Dulbecco's Modified Eagle's Medium) containing 10% FBS for 24 hours, then washed with PBS (phosphate-buffered saline), then 0.5 ml of PBS was added thereto, and the expression of MMP-1 was induced by irradiating the resultant incubated cells with ultraviolet rays. After changing to Serum-Free DMEM, the resultant was treated with 5-adamantan-1-yl-N-(2,4-dihydroxybenzyl)-2,4-dimethoxybenzamide (referred to as ‘AP736’ in FIG. 3) prepared in Example. The amount of the supernatant obtained after incubation for a certain period of time (48 hours) was measured by using an MMP-1 ELISA kit.
In other words, HS68 cells of human dermal fibroblasts were treated with ultraviolet rays to increase the expression of MMP-1, and the resulting HS68 cells were then treated with each sample to see whether the expression of MMP-1 decreased. The experimental results are illustrated in FIG. 3. […]

In the case of `CC1=C(/C=C/C(C)=C/C=C/C(C)=C/C(=O)O)C(C)(C)CCC1` [retinoic acid, reference compound], the “expression of MMP-1” value is reported as “decreased”.
